# ± gives the standard deviation of the averaged measurements. This is one part of the list. Repeats in this data set agree poorly, so a single value says little.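 Macrophages from blood monocytes of four pooled healthy donors, grown with M-CSF, were M1-like and treated with compounds that shifted resting macrophages M2-like in an initial screen. Z-score: t-test of cell eccentricity (~1000 cells/well) versus same-row DMSO wells. Reprogramming means passing the M2 cutoff of +6 from standard cytokine controls (M1 cutoff −4).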
# System: human monocyte-derived macrophages (polarized)
# Assay: cell shape (eccentricity) Z-score vs DMSO control; macrophage state: M1-polarized (IFNg + TNFa), cytokines removed before treatment; higher = more elongated, M2-like morphology
# Settings: 24 h; 5 µM
row,Compound,cell shape (Z-score)
1,O=C1c2ccccc2-c2n[nH]c3cccc1c23,3.32 ± 9.1
2,O=C(c1ccc(/C=C/c2n[nH]c3ccccc23)cc1)N1CCNCC1,7.38
3,CC(C)C[C@H](NC(=O)CNC(=O)c1cc(Cl)ccc1Cl)B(O)O,8.83
4,C=C1C(=O)O[C@H]2C3=C(C)C[C@H](OC(C)=O)C[C@]3(C)CC[C@@H]12,1.79 ± 7.5
5,O=c1cc(-c2cccc3c2Sc2ccccc2S3)oc(N2CCOCC2)c1,6.18 ± 8.9
6,C=C(c1ccc(C(=O)O)cc1)c1cc2c(cc1C)C(C)(C)CCC2(C)C,2.36 ± 0.81
7,Cc1c(-c2ccnc(Nc3ccc(N4CCNCC4)cc3)n2)sc(=O)n1C,-4.59 ± 2.1
8,COc1cc2c(cc1-c1c(C)noc1C)ncc1[nH]c(=O)n([C@H](C)c3ccccn3)c12,-1.76 ± 5.9
9,O=C(Nc1ccncc1)c1cc([N+](=O)[O-])ccc1Cl,-0.292 ± 1.1
10,c1ccc2c(Oc3nc(Nc4ccc(N5CCOCC5)cc4)c4ncn(C5CCCCC5)c4n3)cccc2c1,5.22
11,Cc1ccc2c(=O)c3ccccc3n(CCCN)c2c1C,-1.16 ± 5.8
12,C[C@H]1[C@H](NC(=O)/C(=N\OC(C)(C)C(=O)O)c2csc(N)n2)C(=O)N1S(=O)(=O)O,-2.56 ± 6.3
13,CCCCCCCCCc1ccc(OCCOCCOCCOCCOCCOCCOCCOCCOCCO)cc1,0.38 ± 2.7
14,O=c1cc(-c2ccccc2F)[nH]c2cc3c(cc12)OCO3,-1.9 ± 2.9
15,CC(C)(C)n1nc(-c2cccc3ccccc23)c2c(N)ncnc21,9.16 ± 8.2
16,Cn1cnc(-c2cc3nccc(Oc4ccc(NC(=S)NC(=O)Cc5ccccc5)cc4F)c3s2)c1,4.71 ± 7.1
17,O=Nc1c(-c2c(O)[nH]c3cc(Br)ccc23)[nH]c2ccccc12,-5.06 ± 9.8
18,COc1cc(OC)c(/C=C/S(=O)(=O)Cc2ccc(OC)c(NCC(=O)O)c2)c(OC)c1,-9.85 ± 4.4
19,COc1ccc(-c2oc3ccccc3c(=O)c2O)cc1OC,0.0634 ± 2
20,O=c1cc(-c2ccc(O)cc2)oc2cc(O)cc(O)c12,1.09 ± 6.2

# Same assay, conditions: 24 h; 10 µM
row,Compound,cell shape (Z-score)
1,COc1ccc2c(c1OC)CN(C)CCc1cc3c(cc1C(=O)C2)OCO3,1.12 ± 5.4
2,COc1cccc2c1C(=O)c1c(O)c3c(c(O)c1C2=O)C[C@@](O)(C(C)=O)C[C@@H]3O[C@H]1C[C@H](N)[C@H](O)[C@H](C)O1,0.938 ± 2.5
3,N#CCNC(=O)c1ccc(-c2ccnc(Nc3ccc(N4CCOCC4)cc3)n2)cc1,-2.57 ± 0.033
4,Cc1c(C(=O)Nc2ccc(N3C[C@@H](C)O[C@@H](C)C3)nc2)cccc1-c1ccc(OC(F)(F)F)cc1,7.08
5,COc1c(OC)c(O)c2c(=O)c(O)c(-c3ccccc3)oc2c1OC,-0.515 ± 6
6,COc1ccc(OC)c(-c2nnc3n2N=C(c2ccc(OC)c(OC)c2)CS3)c1,-3.05 ± 2.3
7,Cc1[nH]c2ccccc2c1CCNCc1ccc(/C=C/C(=O)NO)cc1,10.4
8,CC1CNCCN1S(=O)(=O)c1cccc2cnccc12 (centres undefined),0.656 ± 2
9,CS(=O)(=O)c1cccc(CNc2nc(Nc3ccc4c(c3)CCC(=O)N4)ncc2C(F)(F)F)c1,-3.52 ± 5.2
10,CCOC(=O)N[C@@H]1CC[C@@H]2[C@@H](C1)C[C@H]1C(=O)O[C@H](C)[C@H]1[C@H]2/C=C/c1ccc(-c2cccc(F)c2)cn1,0.133 ± 4.6
11,O=C(O[C@@H]1Cc2c(O)cc(O)cc2O[C@@H]1c1cc(O)c(O)c(O)c1)c1cc(O)c(O)c(O)c1,0.218 ± 3.9
12,Cc1onc(-c2ccccc2Cl)c1C(=O)N[C@@H]1C(=O)N2[C@@H]1SC(C)(C)[C@@H]2C(=O)O,-1.2 ± 3.9
13,O=S(=O)(c1cccc2cnccc12)N1CCNCC1,2.77 ± 0.082
14,CN1CCN(c2nc(C3=C(c4c[nH]c5ccccc45)C(=O)NC3=O)c3ccccc3n2)CC1,-0.579 ± 2.7
15,O=C1c2ccccc2-c2n[nH]c3cccc1c23,0.0957 ± 10
16,O=C(c1ccc(/C=C/c2n[nH]c3ccccc23)cc1)N1CCNCC1,8.03 ± 2.3
17,CC(C)C[C@H](NC(=O)CNC(=O)c1cc(Cl)ccc1Cl)B(O)O,6.76
18,C=C1C(=O)O[C@H]2C3=C(C)C[C@H](OC(C)=O)C[C@]3(C)CC[C@@H]12,-2 ± 3.2
19,O=c1cc(-c2cccc3c2Sc2ccccc2S3)oc(N2CCOCC2)c1,4.41 ± 11
20,C=C(c1ccc(C(=O)O)cc1)c1cc2c(cc1C)C(C)(C)CCC2(C)C,-0.271 ± 6.9
21,Cc1c(-c2ccnc(Nc3ccc(N4CCNCC4)cc3)n2)sc(=O)n1C,-1.64 ± 3.1
22,COc1cc2c(cc1-c1c(C)noc1C)ncc1[nH]c(=O)n([C@H](C)c3ccccn3)c12,1.11 ± 4.1
23,O=C(Nc1ccncc1)c1cc([N+](=O)[O-])ccc1Cl,2.26 ± 3.4
24,c1ccc2c(Oc3nc(Nc4ccc(N5CCOCC5)cc4)c4ncn(C5CCCCC5)c4n3)cccc2c1,9.65

# Reference: the supplement of paper PMC7858590
